These results are taken from article PMC5789818.

The chains behind the UniProt entries cited, without tags or fusion partners.
UniProt Q14974: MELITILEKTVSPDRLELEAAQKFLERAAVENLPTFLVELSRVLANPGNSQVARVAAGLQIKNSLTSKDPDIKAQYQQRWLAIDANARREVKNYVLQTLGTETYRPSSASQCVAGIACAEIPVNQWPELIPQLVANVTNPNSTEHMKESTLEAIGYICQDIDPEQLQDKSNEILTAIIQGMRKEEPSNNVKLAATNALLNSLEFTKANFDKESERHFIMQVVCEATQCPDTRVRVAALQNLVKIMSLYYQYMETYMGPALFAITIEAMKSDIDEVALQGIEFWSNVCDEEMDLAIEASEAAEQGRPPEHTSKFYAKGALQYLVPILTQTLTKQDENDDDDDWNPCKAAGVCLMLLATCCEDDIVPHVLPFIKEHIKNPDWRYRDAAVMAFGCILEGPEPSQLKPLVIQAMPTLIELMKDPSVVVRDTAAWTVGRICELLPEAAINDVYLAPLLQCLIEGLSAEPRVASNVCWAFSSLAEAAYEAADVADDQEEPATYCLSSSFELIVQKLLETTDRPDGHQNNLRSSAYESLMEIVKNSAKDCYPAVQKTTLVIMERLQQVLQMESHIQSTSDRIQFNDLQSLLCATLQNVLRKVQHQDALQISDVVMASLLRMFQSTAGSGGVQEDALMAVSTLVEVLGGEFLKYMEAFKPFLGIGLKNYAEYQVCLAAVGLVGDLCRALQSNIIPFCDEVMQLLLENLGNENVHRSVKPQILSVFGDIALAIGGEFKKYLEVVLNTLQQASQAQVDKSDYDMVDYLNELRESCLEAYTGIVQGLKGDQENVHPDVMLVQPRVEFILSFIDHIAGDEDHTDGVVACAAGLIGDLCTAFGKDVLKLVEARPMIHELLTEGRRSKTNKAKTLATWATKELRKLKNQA
UniProt P49792: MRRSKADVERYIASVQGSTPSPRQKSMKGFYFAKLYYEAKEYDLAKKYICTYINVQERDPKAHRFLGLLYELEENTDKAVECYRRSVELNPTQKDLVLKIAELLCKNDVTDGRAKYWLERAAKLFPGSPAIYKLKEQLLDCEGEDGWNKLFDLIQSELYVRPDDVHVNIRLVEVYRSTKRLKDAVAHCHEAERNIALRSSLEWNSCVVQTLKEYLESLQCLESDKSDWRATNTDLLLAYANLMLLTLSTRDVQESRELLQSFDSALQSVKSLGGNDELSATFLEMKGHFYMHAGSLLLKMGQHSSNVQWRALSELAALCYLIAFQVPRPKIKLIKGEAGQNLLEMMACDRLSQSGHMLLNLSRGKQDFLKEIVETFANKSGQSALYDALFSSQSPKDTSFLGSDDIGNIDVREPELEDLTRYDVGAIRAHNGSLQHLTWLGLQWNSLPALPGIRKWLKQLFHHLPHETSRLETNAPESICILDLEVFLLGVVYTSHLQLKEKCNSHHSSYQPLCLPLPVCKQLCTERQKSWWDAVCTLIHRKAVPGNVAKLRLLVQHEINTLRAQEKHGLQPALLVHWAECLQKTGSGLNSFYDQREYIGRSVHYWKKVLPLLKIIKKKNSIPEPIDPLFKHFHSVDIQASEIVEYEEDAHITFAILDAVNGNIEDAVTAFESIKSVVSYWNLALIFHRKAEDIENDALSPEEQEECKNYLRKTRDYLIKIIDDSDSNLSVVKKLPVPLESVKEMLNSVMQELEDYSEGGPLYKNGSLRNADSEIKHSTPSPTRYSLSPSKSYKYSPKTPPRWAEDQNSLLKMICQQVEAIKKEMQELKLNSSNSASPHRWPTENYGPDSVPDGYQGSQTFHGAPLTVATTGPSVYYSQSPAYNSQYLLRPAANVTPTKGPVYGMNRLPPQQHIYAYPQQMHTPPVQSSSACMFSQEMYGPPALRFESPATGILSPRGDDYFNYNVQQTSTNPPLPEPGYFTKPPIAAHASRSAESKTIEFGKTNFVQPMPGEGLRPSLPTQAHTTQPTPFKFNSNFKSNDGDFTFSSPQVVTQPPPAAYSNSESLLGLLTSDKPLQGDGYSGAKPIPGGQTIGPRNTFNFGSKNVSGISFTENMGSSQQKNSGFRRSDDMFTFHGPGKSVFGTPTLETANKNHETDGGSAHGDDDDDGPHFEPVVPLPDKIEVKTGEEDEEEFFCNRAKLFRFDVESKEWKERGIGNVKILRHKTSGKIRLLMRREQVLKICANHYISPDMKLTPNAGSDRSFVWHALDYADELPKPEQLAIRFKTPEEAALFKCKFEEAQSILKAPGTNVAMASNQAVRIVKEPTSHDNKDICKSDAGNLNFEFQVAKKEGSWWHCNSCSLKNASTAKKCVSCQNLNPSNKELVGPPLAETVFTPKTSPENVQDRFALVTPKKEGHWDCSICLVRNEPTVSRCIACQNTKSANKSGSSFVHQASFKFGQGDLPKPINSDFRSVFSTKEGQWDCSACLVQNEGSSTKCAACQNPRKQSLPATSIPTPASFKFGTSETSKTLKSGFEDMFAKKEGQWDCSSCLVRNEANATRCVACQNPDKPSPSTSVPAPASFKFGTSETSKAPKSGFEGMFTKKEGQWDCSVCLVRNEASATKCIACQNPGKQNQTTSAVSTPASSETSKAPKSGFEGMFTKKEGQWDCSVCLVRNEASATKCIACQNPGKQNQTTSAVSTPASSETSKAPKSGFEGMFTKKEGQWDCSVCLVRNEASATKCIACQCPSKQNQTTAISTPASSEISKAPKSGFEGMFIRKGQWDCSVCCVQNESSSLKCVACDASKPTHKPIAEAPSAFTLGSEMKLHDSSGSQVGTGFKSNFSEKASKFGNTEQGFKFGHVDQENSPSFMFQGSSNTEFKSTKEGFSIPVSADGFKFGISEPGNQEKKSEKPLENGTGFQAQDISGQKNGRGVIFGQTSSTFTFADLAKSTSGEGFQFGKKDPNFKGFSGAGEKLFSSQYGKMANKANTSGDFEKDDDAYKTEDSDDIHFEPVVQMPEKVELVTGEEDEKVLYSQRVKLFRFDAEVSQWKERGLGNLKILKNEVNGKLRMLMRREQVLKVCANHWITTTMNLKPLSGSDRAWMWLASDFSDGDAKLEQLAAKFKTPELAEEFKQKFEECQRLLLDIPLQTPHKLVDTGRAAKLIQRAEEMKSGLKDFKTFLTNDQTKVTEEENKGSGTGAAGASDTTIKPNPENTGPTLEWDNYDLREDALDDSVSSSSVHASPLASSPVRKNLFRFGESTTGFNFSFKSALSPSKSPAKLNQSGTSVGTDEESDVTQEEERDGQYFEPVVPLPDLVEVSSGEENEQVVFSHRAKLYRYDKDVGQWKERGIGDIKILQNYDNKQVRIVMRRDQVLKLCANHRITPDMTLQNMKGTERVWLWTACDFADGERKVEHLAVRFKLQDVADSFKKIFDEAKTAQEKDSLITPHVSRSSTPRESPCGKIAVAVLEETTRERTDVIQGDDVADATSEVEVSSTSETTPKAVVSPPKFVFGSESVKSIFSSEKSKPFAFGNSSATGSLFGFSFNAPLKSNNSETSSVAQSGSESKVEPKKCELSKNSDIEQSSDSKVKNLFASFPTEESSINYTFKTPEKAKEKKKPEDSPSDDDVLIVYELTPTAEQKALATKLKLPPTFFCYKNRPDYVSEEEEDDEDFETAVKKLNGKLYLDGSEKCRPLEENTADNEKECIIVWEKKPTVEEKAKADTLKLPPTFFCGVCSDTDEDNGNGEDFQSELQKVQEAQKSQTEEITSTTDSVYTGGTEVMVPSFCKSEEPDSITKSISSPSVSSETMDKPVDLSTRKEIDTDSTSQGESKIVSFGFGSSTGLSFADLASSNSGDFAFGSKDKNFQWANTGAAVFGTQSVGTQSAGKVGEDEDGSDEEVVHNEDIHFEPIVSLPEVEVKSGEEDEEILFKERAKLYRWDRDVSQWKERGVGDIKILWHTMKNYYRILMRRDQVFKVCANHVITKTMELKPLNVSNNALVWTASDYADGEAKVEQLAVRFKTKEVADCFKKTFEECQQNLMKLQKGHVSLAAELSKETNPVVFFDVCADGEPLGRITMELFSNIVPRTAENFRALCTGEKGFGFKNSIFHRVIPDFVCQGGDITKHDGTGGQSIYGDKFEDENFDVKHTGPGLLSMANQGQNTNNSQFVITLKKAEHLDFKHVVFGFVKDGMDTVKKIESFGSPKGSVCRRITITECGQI
UniProt O43684: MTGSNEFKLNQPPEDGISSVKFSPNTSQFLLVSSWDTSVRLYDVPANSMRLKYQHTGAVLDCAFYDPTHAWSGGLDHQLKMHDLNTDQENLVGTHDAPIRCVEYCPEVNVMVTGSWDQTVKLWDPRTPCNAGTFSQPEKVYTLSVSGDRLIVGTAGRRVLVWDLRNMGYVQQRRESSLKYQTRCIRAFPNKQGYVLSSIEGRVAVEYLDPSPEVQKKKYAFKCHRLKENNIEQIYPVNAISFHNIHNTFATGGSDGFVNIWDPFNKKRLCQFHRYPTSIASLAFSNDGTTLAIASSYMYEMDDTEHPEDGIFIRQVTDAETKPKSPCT

These are yes or no findings as the source states them, for the method shown. Binding seen in cells or lysates may run through a third protein. Some results given as binding are weak or reduced against the parent protein; the word gives no strength.

In experiment [1] the target is Human karyopherin beta-1/importin beta-1 (human (endogenous in HeLa)) (UniProt Q14974). The experiment in a line: condition: only cells treated with 50 μM Importazole; proximity ligation; in situ PLA (Duolink) in fixed HeLa cells treated with 50 μM Importazole for the last 2-3 hours of culture.
Experiment [2] has the same target. Description: proximity ligation; in situ PLA (Duolink) in fixed HeLa cells, mouse and rabbit primary antibodies for each pair; non-synchronized and RO3306-synchronized cultures; automated 40x acquisition and 100x high-resolution imaging of mitotic cells.
For experiment [3] the target is unchanged. Described as above. This is another data set of the same source.

Take “E3 SUMO-protein ligase RanBP2 (from UniProt P49792 1-3224)”: the results for the binding result in experiment [1] and in experiment [2] were “no binding” and “binds”, respectively.
For “Mitotic checkpoint protein BUB3 (from UniProt O43684 1-328)” the same measures were “no binding” and “binds”.

B1: Nucleolar spindle-associated protein 1 (protein, UniProt Q9BXS6 1-441)
chain: MIIPSLEELDSLKYSDLQNLAKSLGLRANLRATKLLKALKGYIKHEARKGNENQDESQTSASSCDETEIQISNQEEAERQPLGHVTKTRRRCKTVRVDPDSQQNHSEIKISNPTEFQNHEKQESQDLRATAKVPSPPDEHQEAENAVSSGNRDSKVPSEGKKSLYTDESSKPGKNKRTAITTPNFKKLHEAHFKEMESIDQYIERKKKHFEEHNSMNELKQQPINKGGVRTPVPPRGRLSVASTPISQRRSQGRSCGPASQSTLGLKGSLKRSAISAAKTGVRFSAATKDNEHKRSLTKTPARKSAHVTVSGGTPKGEAVLGTHKLKTITGNSAAVITPFKLTTEATQTPVSNKKPVFDLKASLSRPLNYEPHKGKLKPWGQSKENNYLNQHVNRINFYKKTYKQPHLQTKEEQRKKREQERKEKKAKVLGMRRGLILAED
Take B1: the figures for the binding result in experiment [1] and in experiment [3] were “no binding” and “binds”, respectively.
